# Results deposited as PubChem BioAssay AID1259308 (NCATS, 2017).
# Screen: 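Genes whose loss raises luciferase production in HEK293 cells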 (primary screen)
# System: human HEK293 embryonic kidney cells stably expressing firefly luciferase (HEK-CMV-Luc2-Hygro)
# Reagents: single siRNA against human genes, 0.8 pmol siRNA per well
# Timing: 72 h
# Measured: 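Reporter luminescence and viable-cell signal on separate replicate plates, given as percent of non-targeting control and median/MAD z-scores, plus per-cell luciferase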
# Direction: total luciferase, z-score and total luciferase, % of control: higher = more reporter protein produced; luciferase per cell, z-score: higher = more reporter output per viable cell
# Hit rule: 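An siRNA counts as active if its total luciferase robust z-score exceeds 3; genes with two or more such siRNAs out of three were retested with fresh siRNAs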
# Meaning of the calls: active = raised luciferase; inactive = no rise
# Here is an unselected part of about 59,000 reagents. About 1,510 of them (2.6%) count as active. 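Calls use total luciferase alone and ignore viability, so some active siRNAs may act by altering cell number.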 The numbers tell different reagents against one gene apart. Further read-outs or replicates are left out here.
target,reagent no.,"total luciferase, z-score","total luciferase, % of control","luciferase per cell, z-score",call
SLC41A2,1,-1.16,58.7,-1.43,inactive
SLC41A2,2,0.458,91,0.957,inactive
SLC41A2,3,0.698,95.8,0.684,inactive
HOXB3,1,-1.53,51.5,-1.85,inactive
HOXB3,2,-1.8,46.1,-1.86,inactive
HOXB3,3,0.731,96.4,0.407,inactive
HOXD11,1,-0.0533,80.8,-0.323,inactive
HOXD11,2,0.116,84.2,0.388,inactive
HOXD11,3,-1.07,60.5,-0.763,inactive
SCAMP4,1,0.271,87.3,0.851,inactive
SCAMP4,2,0.861,99,1.39,inactive
SCAMP4,3,-2.26,36.9,-2.45,inactive
ELOCP3,1,1.47,111,1.85,inactive
ELOCP3,2,0.821,98.2,2.62,inactive
ELOCP3,3,0.76,97,1.14,inactive
ACE2,1,0.498,91.8,0.468,inactive
ACE2,2,1.42,110,1.42,inactive
ACE2,3,3.32,148,1.82,active
SPSB1,1,4.74,176,3.76,active
SPSB1,2,-1.37,54.6,-1.03,inactive
SPSB1,3,0.616,94.1,0.908,inactive

Records listed above with an active call (2):
target,reagent no.,"total luciferase, z-score","total luciferase, % of control","luciferase per cell, z-score",call
ACE2,3,3.32,148,1.82,active
SPSB1,1,4.74,176,3.76,active

Next reagents follow.
target,reagent no.,"total luciferase, z-score","total luciferase, % of control","luciferase per cell, z-score",call
SLC16A9,1,-1.76,46.9,-1.94,inactive
SLC16A9,2,3.43,150,2.23,active
SLC16A9,3,1.32,108,0.782,inactive
GTF2H3,1,-0.0434,81,-0.227,inactive
GTF2H3,2,0.173,85.3,0.546,inactive
GTF2H3,3,0.0849,83.6,-0.142,inactive
OR4D1,1,0.0718,83.3,0.63,inactive
OR4D1,2,-1.08,60.4,-1.04,inactive
OR4D1,3,1.25,107,0.321,inactive
MMP28,1,0.954,101,0.663,inactive
MMP28,2,-0.907,63.8,-1.69,inactive
MMP28,3,1.97,121,1.19,inactive
E2F5,1,-0.905,63.9,-0.489,inactive
E2F5,2,0.126,84.4,-0.248,inactive
E2F5,3,3.28,147,1.92,active
LCE2A,1,-0.844,65.1,-1.11,inactive
LCE2A,2,0.902,99.8,3.04,inactive
LCE2A,3,4.27,167,3,active
EXT2,1,-0.677,68.4,-0.977,inactive
EXT2,2,0.312,88.1,-0.535,inactive
EXT2,3,-0.252,76.9,-0.229,inactive
PPL,1,-0.414,73.6,-0.193,inactive
PPL,2,-0.909,63.8,-0.852,inactive
PPL,3,-0.185,78.2,0.0597,inactive
TMTC4,1,-0.98,62.4,-0.92,inactive
TMTC4,2,0.98,101,1.13,inactive
TMTC4,3,-1.04,61.2,-0.265,inactive
KRT78,1,-0.699,68,-1.1,inactive
KRT78,2,1.14,104,1.51,inactive
KRT78,3,1.03,102,1.17,inactive
LRRD1,1,-0.344,75,-0.79,inactive
LRRD1,2,0.721,96.2,0.576,inactive
LRRD1,3,0.839,98.6,0.431,inactive
PCDHGA6,1,0.573,93.3,0.781,inactive
PCDHGA6,2,-1.13,59.5,-1.12,inactive
PCDHGA6,3,-0.805,65.9,-0.621,inactive
